Data as given in PubChem BioAssay AID686938 (Drosophila RNAi Screening Center, 2013).
Test: 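Fly genes required for calcium entry once internal stores are emptied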 (primary screen). Cells: Drosophila S2R+ cells. Knock-down reagent: long dsRNA against Drosophila genes, about 0.25 µg dsRNA per well, roughly 10,000 cells. Time to read-out: 5 days of knock-down before the calcium assay. Conditions: thapsigargin (SERCA pump blocker) to empty calcium stores; entry signal taken 4 min after adding it. Detection: 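Duplicate raw fluo-4 intensities per well from a plate reader, at rest and four minutes after thapsigargin emptied calcium stores; entry-to-rest ratio filled for only some wells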. Scale: calcium entry signal: higher = stronger calcium signal after store depletion; entry to resting ratio: higher = more calcium entry relative to resting level; resting calcium signal: higher = higher resting calcium signal. Units: calcium entry signal in fluorescence units; resting calcium signal in fluorescence units. Hit rule: 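Called when the plate z-score of the entry-to-rest ratio, mean of duplicates, falls below −3; wells with low overall dye signal (Fmax z below −2) or more than five off-targets excluded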. Meaning of the calls: active = strongly reduced calcium entry; inactive = no strong reduction.
In all, the deposit lists about 23,000 reagents; below is an unselected part of those with a known target gene and a result. Over the whole deposit, 75 (0.33%) got an active call. 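Raw plate signals without normalisation; calls rest on plate z-scores that were not deposited; ratio present for only 364 wells.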 A number with no mark means an inactive call. The record does not give: the dose of the treatment.

Pi4KIIIalpha [DRSC18655] → calcium entry signal, replicate 1: 4.24e7; calcium entry signal, replicate 2: 4.28e7; entry to resting ratio: 2; resting calcium signal, replicate 1: 2.13e7; resting calcium signal, replicate 2: 1.87e7
CG13800 (retired record) [DRSC08334] → calcium entry signal, replicate 1: 3.53e7; calcium entry signal, replicate 2: 4.44e7; resting calcium signal, replicate 1: 1.70e7; resting calcium signal, replicate 2: 1.92e7
Dph4 [DRSC12318] → calcium entry signal, replicate 1: 4.49e7; calcium entry signal, replicate 2: 3.19e7; resting calcium signal, replicate 1: 2.13e7; resting calcium signal, replicate 2: 1.45e7
CG7606 [DRSC13246] → calcium entry signal, replicate 1: 4.55e7; calcium entry signal, replicate 2: 2.79e7; resting calcium signal, replicate 1: 2.18e7; resting calcium signal, replicate 2: 1.35e7
CG7606 [DRSC16268] → calcium entry signal, replicate 1: 3.30e7; calcium entry signal, replicate 2: 5.40e7; resting calcium signal, replicate 1: 1.84e7; resting calcium signal, replicate 2: 6.48e7
twz [DRSC04069] → calcium entry signal, replicate 1: 4.17e7; calcium entry signal, replicate 2: 4.18e7; resting calcium signal, replicate 1: 1.91e7; resting calcium signal, replicate 2: 1.76e7
DAT [DRSC07394] → calcium entry signal, replicate 1: 4.86e7; calcium entry signal, replicate 2: 5.57e7; resting calcium signal, replicate 1: 2.17e7; resting calcium signal, replicate 2: 2.71e7
CG14715 [DRSC14938] → calcium entry signal, replicate 1: 2.83e7; calcium entry signal, replicate 2: 3.01e7; resting calcium signal, replicate 1: 1.26e7; resting calcium signal, replicate 2: 1.41e7
Osi6 [DRSC12128] → calcium entry signal, replicate 1: 4.16e7; calcium entry signal, replicate 2: 3.47e7; resting calcium signal, replicate 1: 2.02e7; resting calcium signal, replicate 2: 1.68e7
cpo [DRSC13265] → calcium entry signal, replicate 1: 4.38e7; calcium entry signal, replicate 2: 3.18e7; resting calcium signal, replicate 1: 2.09e7; resting calcium signal, replicate 2: 1.52e7
cpo [DRSC13273] → calcium entry signal, replicate 1: 4.87e7; calcium entry signal, replicate 2: 3.09e7; resting calcium signal, replicate 1: 2.58e7; resting calcium signal, replicate 2: 1.65e7
cpo [DRSC14503] → calcium entry signal, replicate 1: 1.92e7; calcium entry signal, replicate 2: 2.65e7; resting calcium signal, replicate 1: 1.32e7; resting calcium signal, replicate 2: 5.18e7
cpo [DRSC15327] → calcium entry signal, replicate 1: 2.38e7; calcium entry signal, replicate 2: 2.66e7; resting calcium signal, replicate 1: 1.42e7; resting calcium signal, replicate 2: 4.88e7
cpo [DRSC16926] → calcium entry signal, replicate 1: 2.85e7; calcium entry signal, replicate 2: 2.96e7; resting calcium signal, replicate 1: 6.56e7; resting calcium signal, replicate 2: 1.71e7
cpo [DRSC23006] → calcium entry signal, replicate 1: 5.38e7; calcium entry signal, replicate 2: 3.17e7; resting calcium signal, replicate 1: 2.64e7; resting calcium signal, replicate 2: 1.48e7

Records above whose target name begins with D or d (2):
Dph4 [DRSC12318] → calcium entry signal, replicate 1: 4.49e7; calcium entry signal, replicate 2: 3.19e7; resting calcium signal, replicate 1: 2.13e7; resting calcium signal, replicate 2: 1.45e7
DAT [DRSC07394] → calcium entry signal, replicate 1: 4.86e7; calcium entry signal, replicate 2: 5.57e7; resting calcium signal, replicate 1: 2.17e7; resting calcium signal, replicate 2: 2.71e7
